Three substances from publication doi:10.1101/2024.11.20.624462 can be followed below.

Sequences of proteins named here, by UniProt entry; tags and fusion partners are left off. A change or cut given only in a name is not applied to a line headed by its entry.
UniProt Q9NRL2, whole entry: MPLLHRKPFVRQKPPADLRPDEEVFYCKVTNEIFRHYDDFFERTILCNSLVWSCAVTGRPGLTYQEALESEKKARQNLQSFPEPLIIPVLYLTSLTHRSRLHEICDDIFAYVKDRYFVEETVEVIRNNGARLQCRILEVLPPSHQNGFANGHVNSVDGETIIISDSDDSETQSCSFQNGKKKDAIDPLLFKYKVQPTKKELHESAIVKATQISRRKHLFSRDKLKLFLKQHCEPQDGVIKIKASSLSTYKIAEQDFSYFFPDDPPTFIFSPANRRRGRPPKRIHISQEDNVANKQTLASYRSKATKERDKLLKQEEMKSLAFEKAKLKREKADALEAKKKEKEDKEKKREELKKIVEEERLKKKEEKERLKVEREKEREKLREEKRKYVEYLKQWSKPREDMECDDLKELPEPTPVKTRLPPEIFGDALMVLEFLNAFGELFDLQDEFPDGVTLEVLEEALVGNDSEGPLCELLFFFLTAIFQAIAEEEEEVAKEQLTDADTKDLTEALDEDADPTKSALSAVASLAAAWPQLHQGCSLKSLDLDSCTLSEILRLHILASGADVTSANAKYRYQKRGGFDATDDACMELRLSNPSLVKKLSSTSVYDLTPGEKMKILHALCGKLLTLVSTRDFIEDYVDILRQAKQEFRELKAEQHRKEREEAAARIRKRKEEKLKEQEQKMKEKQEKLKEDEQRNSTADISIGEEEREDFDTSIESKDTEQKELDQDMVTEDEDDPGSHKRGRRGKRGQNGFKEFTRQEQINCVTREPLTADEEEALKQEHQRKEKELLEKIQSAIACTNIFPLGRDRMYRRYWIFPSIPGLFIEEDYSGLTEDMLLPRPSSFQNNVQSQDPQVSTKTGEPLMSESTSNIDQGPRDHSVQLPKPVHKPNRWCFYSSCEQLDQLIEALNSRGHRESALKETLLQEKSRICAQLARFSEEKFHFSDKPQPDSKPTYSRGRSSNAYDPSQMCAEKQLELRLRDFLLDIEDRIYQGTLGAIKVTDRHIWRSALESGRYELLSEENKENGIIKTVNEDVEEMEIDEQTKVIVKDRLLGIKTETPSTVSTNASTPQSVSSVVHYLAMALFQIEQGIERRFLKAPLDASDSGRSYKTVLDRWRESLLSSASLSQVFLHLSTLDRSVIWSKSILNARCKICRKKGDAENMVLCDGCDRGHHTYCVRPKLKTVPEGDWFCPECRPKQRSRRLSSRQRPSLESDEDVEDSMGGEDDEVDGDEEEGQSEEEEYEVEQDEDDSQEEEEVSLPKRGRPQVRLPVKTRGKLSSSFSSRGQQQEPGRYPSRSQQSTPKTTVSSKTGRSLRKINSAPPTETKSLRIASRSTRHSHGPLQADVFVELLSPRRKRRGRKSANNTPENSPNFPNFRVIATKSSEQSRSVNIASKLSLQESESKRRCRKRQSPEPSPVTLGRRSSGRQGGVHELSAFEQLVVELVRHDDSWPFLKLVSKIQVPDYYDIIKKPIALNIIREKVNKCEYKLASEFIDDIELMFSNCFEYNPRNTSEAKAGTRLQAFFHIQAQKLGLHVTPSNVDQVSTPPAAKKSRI
UniProt Q01094, whole entry: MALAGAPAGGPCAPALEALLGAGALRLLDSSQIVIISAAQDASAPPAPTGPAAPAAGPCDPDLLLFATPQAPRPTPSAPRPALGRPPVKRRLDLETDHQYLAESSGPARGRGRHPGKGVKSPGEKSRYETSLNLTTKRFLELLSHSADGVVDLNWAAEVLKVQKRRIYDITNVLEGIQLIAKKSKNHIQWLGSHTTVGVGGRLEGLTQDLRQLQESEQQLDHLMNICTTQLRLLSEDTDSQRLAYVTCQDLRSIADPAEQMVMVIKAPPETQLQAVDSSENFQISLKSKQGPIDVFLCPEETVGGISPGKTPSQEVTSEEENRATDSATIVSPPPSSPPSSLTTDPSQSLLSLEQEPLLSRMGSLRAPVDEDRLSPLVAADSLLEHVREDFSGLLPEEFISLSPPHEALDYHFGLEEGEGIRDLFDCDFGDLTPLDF
UniProt P28370, whole entry: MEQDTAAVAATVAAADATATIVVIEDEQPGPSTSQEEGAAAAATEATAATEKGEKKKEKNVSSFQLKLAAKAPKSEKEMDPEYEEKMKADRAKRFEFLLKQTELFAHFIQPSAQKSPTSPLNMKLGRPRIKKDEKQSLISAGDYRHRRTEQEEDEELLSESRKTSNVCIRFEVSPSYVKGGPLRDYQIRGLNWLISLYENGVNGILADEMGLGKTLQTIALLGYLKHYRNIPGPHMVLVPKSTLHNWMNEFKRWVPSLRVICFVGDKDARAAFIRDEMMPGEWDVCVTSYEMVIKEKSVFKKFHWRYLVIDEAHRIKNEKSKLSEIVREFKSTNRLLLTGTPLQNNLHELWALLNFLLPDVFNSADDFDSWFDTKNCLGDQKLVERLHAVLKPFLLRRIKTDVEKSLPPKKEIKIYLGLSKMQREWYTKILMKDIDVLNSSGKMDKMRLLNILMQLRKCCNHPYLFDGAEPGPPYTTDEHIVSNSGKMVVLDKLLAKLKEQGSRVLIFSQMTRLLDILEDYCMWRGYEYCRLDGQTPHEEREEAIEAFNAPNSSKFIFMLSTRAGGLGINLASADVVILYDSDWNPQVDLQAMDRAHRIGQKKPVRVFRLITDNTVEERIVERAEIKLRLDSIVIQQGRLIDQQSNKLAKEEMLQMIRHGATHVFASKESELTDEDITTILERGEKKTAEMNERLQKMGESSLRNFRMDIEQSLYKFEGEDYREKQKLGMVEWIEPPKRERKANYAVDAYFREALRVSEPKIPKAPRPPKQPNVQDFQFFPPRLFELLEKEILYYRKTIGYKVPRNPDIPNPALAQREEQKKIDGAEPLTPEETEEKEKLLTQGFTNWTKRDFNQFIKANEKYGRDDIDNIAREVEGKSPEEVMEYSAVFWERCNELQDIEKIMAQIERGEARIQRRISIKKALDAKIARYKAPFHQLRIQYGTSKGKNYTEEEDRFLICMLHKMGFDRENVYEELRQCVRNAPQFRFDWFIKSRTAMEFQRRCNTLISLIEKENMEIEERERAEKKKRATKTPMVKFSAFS
UniProt O60264, whole entry: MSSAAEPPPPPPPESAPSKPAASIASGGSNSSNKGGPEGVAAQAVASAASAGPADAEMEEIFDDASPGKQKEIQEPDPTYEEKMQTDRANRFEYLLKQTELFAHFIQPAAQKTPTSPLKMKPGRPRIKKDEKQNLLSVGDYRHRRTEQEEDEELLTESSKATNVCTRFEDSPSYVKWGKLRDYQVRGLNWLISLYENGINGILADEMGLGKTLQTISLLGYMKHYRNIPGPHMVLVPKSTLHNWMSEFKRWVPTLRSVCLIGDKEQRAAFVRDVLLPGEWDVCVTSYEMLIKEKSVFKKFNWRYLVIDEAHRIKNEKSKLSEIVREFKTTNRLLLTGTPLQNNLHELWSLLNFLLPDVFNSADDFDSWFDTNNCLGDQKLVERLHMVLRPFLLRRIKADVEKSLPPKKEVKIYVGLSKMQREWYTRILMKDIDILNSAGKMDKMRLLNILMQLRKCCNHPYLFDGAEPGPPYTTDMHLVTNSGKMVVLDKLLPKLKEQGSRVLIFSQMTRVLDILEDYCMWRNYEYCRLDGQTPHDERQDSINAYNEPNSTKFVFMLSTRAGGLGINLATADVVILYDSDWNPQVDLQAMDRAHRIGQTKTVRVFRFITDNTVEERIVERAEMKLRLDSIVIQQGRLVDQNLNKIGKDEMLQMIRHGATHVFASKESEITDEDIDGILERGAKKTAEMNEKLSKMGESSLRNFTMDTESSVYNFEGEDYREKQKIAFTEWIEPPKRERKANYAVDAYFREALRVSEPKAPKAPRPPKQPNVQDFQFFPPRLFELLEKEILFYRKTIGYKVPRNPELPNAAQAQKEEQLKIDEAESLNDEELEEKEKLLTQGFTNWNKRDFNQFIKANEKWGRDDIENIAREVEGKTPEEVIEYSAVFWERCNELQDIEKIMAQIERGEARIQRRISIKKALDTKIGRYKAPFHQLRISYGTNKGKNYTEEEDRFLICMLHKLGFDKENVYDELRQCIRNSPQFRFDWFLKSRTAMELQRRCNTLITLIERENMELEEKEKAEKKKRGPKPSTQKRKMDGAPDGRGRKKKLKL

Test in all cases: co-IP
In experiment [1] the target is BAZ1A-eGFP (Bromodomain Adjacent to Zinc Finger Domain 1A) (UniProt Q9NRL2).
Experiment [2] has as its target HA-E2F1 (E2F transcription factor 1) (UniProt Q01094).
Experiment [3] concerns the target SMARCA1 (UniProt P28370).
Experiment [4] addresses SMARCA5-eGFP (UniProt O60264).
Experiment [5] has as its target E2F1, endogenous (LN229) (human (endogenous in LN229)) (UniProt Q01094).

Results are given in words; binding and its absence hold for the method and conditions named. Binding seen in cells or lysates may run through a third protein. Some entries that bind do so weakly or less than the wild type.

SMARCA5 (from UniProt O60264 1-1052): the binding entry in experiment [1] and in experiment [2] was “binds” in each case.
Consider “BAZ1A-eGFP (Bromodomain Adjacent to Zinc Finger Domain 1A) (from UniProt Q9NRL2 1-1556)”, for which the binding entry in experiment [2], in experiment [3] and in experiment [4] was “binds” throughout.
Take “BAZ1A, endogenous (LN229) (from UniProt Q9NRL2 1-1556)”: the binding entry in experiment [5] is listed as “binds”.
